# Reference: the supplement of paper PMC8975748
# Counter-ions that a name gives are not always drawn. ± gives the standard deviation of the averaged measurements. The list shows a part of the results. Values are raw readings; no control value is given beside them.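 One yeast strain harboring four plasmids, each bearing a fluorescent protein plus an amino-acid or uracil synthesis gene, founds the community. Random loss of plasmids produces mixed prototroph and auxotroph subpopulations. Cells were fixed, then counted with automated confocal fluorescence imaging, with DMSO-treated wells as vehicle reference.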
# Tested on: Saccharomyces cerevisiae BY4741 SeMeCo community
# Assay: imaged cell count per well (cells); higher = more cells
# Conditions: 10 µM; 24 h; SM minimal medium
# Method: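 Same SeMeCo high-content imaging drug screen: Selleck FDA-approved drugs at 10 µM, 24 h in SM medium, 384-well plates, 3 replicates.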
row,SMILES,imaged cell count per well
1,C=CN1CCCC1=O.II [Povidone iodine],24100 ± 5800
2,NCCc1c[nH]c2ccc(O)cc12 [Serotonin HCl],26300 ± 10000
3,COC(=O)C1=CCCN(C)C1 [Arecoline HBr],21300 ± 4800
4,CN1C(=O)COc2c(C(=O)NC3CN4CCC3CC4)cc(Cl)cc21 (centres undefined) [Azasetron HCl],22600 ± 5700
5,CN1[C@@H]2C[C@@H](OC(=O)[C@H](CO)c3ccccc3)C[C@H]1[C@@H]1O[C@@H]12 [Scopolamine HBr],24400 ± 4600
6,CN(C)C(=O)Oc1cccc([N+](C)(C)C)c1 [Neostigmine Bromide],28200 ± 2700
7,CC(=O)O[C@H]1C[C@@H]2CC[C@@H]3[C@H](CC[C@@]4(C)[C@H]3C[C@H]([N+]3(C)CCCCC3)[C@@H]4OC(C)=O)[C@@]2(C)C[C@@H]1[N+]1(C)CCCCC1 [Pancuronium dibromide],23700 ± 1700
8,CC(C)=CCOc1c2occc2cc2ccc(=O)oc12 [Imperatorin],16300 ± 3800
9,O=C(O[C@H]1C[C@H]2CC[C@@H](C1)[N+]21CCCC1)C(O)(c1ccccc1)c1ccccc1 [Trospium chloride],21200 ± 2400
10,CN[C@@H]1[C@@H](O)[C@@H](O[C@@H]2[C@@H](O)[C@H](O[C@H]3O[C@H]([C@@H](C)O)[C@@H](O)[C@H](O)[C@H]3N)[C@@H](N)C[C@H]2N)OC[C@]1(C)O [Geneticin (G418 Sulfate)],26100 ± 1300
11,COc1ccc2c3c([nH]c2c1)C(C)=NCC3 [Harmaline],30100 ± 8400
12,CC[N+](C)(CC)CCOC(=O)C(O)(c1ccccc1)c1ccccc1 [Methylbenactyzine Bromide],24900 ± 8700
13,C=CC[C@]1(O)CC[C@H]2[C@@H]3CCC4=CC(=O)CCC4=C3C=C[C@@]21C [Altrenogest],25400 ± 3800
14,C[C@@H]1O[C@@H](O[C@H]2C[C@@H](O)[C@]3(CO)[C@H]4[C@H](O)C[C@]5(C)[C@@H](C6=CC(=O)OC6)CC[C@]5(O)[C@@H]4CC[C@]3(O)C2)[C@H](O)[C@H](O)[C@H]1O [Ouabain],29500 ± 7400
15,CN(C)C(=O)Oc1ccc[n+](C)c1 [Pyridostigmine Bromide],20900 ± 4700
16,COc1ccc(C(CN(C)C)C2(O)CCCCC2)cc1 (centres undefined) [Venlafaxine HCl],26800 ± 1700
17,CC(=O)c1c(O)cc(C)oc1=O [Sodium dehydroacetate],19000 ± 820

row,SMILES,imaged cell count per well
1,CCC1=C[C@H]2CN3CCc4c([nH]c5ccccc45)[C@](C(=O)OC)(C2)[C@H]13 [Catharanthine],22800 ± 4700
2,CC(C)(O)C(Cl)(Cl)Cl [Chlorobutanol],21300 ± 6700
3,CC[C@H]1CN2CC[C@]3(C(=O)Nc4ccccc43)[C@@H]2C[C@@H]1/C(=C\OC)C(=O)OC [Rhynchophylline],21200 ± 6600
4,CCN(C)C(=O)Oc1cccc([C@H](C)N(C)C)c1 [Rivastigmine],19300 ± 5700
5,COc1ccc2c(c1)[C@]13CCCC[C@@H]1[C@H](C2)N(C)CC3 [Dextromethorphan hydrobromide hydrate],18600 ± 13000
6,O=[N+]([O-])C(Br)(CO)CO [Bronopol],23400 ± 9600
7,C[N+]1(C)[C@@H]2C[C@@H](OC(=O)[C@H](CO)c3ccccc3)C[C@H]1[C@@H]1O[C@@H]12 [Methscopolamine],18900 ± 4300
8,COc1ccc(C=O)cc1 [p-Anisaldehyde],27600 ± 7800
9,"NCC(O)c1ccc(O)cc1 (racemic) [(+,-)-Octopamine HCl]",27500 ± 5700
10,N#Cc1nn(-c2c(Cl)cc(C(F)(F)F)cc2Cl)c(N)c1[S+]([O-])C(F)(F)F (centres undefined) [Fipronil],25000 ± 7600
11,O=C(O[C@H]1C[N+]2(CCCOc3ccccc3)CCC1CC2)C(O)(c1cccs1)c1cccs1 [Aclidinium Bromide],19700 ± 5200
12,CCOC(=O)Nc1ccc(NCc2ccc(F)cc2)cc1N [Retigabine 2HCl],27400 ± 6000
13,CCCN1C[C@H](CSC)C[C@@H]2c3cccc4[nH]cc(c34)C[C@H]21 [Pergolide Mesylate],25900 ± 7600
14,[O-][n+]1ccccc1[S-].[O-][n+]1ccccc1[S-].[Zn+2] [Zinc Pyrithione],845 ± 130
15,CCCCCCCCCCCCCCCC[n+]1ccccc1 [Cetylpyridinium Chloride],1450 ± 930
16,CCOC(=O)Nc1ccc(NCc2ccc(F)cc2)cc1N [Retigabine],22000 ± 2500
17,O=c1cccc2n1C[C@@H]1CNC[C@H]2C1 [Cytisine],20100 ± 5600

# Looked up above.
# imaged cell count per well, O=C(O[C@H]1C[N+]2(CCCOc3ccccc3)CCC1CC2)C(O)(c1cccs1)c1cccs1 [Aclidinium Bromide] is entered as 19700 ± 5200
# imaged cell count per well, NCC(O)c1ccc(O)cc1 (racemic) [(+,-)-Octopamine HCl] is entered as 27500 ± 5700
